Consider 42 sequences from paper PMC7819943, “Rice protein-binding microarrays: a tool to detect cis-acting elements near promoter regions in rice”.

The other results are listed elsewhere or left out.

The assay deals with T1, OsSMF1 (Oryza sativa, UniProt Q6ZLB0 1-436).
T1 sequence: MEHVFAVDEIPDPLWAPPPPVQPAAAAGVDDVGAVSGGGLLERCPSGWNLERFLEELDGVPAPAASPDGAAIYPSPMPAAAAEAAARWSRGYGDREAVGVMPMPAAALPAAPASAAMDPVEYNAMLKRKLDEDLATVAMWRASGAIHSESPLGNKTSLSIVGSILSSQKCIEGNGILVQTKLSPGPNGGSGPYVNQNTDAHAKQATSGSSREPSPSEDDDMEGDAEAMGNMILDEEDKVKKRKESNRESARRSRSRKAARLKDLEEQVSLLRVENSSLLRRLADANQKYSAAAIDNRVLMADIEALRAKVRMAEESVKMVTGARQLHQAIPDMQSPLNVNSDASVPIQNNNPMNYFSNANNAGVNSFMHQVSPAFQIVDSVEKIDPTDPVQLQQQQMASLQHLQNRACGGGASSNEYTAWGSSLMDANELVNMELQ
Nature of the assay: protein-binding microarray (RPBM); PBS, 2% BSA, 51.3 ng/ul salmon testes DNA, 50 uM zinc acetate, 200 nM TF, 25 C, 1 h; high values mean tight binding. The note with it: protein: recombinant; tags: N-terminal polyhistidine and DsRed monomer fusion (pET32a); chain copies: 2; label: CyDye5-dUTP incorporated in the synthesized complementary strand; 3' TTTTT single-stranded linker to array surface; dsDNA, one strand shown. The method, boiled down:
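Using Ni–NTA, transcription factors fused N-terminally to polyhistidine and DsRed were purified after expression in E. coli BL21-CodonPlus. These were incubated at 200 nM with a blocked, double-stranded custom Agilent array for 1 h at 25 °C in a buffer containing 50 µM zinc acetate, and the array was washed. The binding signal is per-feature fluorescence intensity (arbitrary units) on an Axon 4000B scanner.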
Regarding “TCGGTCATGATGTCGCTACCCTTTCTTATTGTCGGCGTTGCGGAGTCACCTAGTGCAG”, the binding signal is 3240 fluorescence intensity (a.u.).

With “AAACATTTCCCTTTTAAGTTGAGCTGTCATAAATCATAATCGGAGTCACCTAGTGCAG”, the binding signal is 3170 fluorescence intensity (a.u.). Regarding “AGCTCTACAAGGACCTAAAATTAAGGGTGCCAACTATTAGCGGAGTCACCTAGTGCAG”, the binding signal was 3410 fluorescence intensity (a.u.). For the sequence “AAGGGGAGATCACACACTGAGTCACTGACTGACTAAATCGCGGAGTCACCTAGTGCAG”, the binding signal is 4010 fluorescence intensity (a.u.). As for “CGTTGTCAACCCTACCATCCCCAAACTGGTCCCGTTCGTTCGGAGTCACCTAGTGCAG”, the figure is 31300 fluorescence intensity (a.u.). With “AACTTCTAAAATTATAAGAAAAGTACGTCAGTATTATTTGCGGAGTCACCTAGTGCAG” the figure was 3810 fluorescence intensity (a.u.); with “TGGTGTCCTCTGTTATCGATTATCAACGTGGGAGTAAATCCGGAGTCACCTAGTGCAG”, 4650 fluorescence intensity (a.u.).

Take “CCCACAACCAAATCAACAACCACGCCATTGCCGTTCTCTCCGGAGTCACCTAGTGCAG”: the binding signal was 3520 fluorescence intensity (a.u.).

Take “TGTGCTTGGAAATCAAAGATTGGATGTCACGTGTAGTACGCGGAGTCACCTAGTGCAG”: the binding signal was 3560 fluorescence intensity (a.u.).

“CTGTCCACGCTATTGCCATTGCATGACCACGTTAAACACCCGGAGTCACCTAGTGCAG”: the binding signal is 3640 fluorescence intensity (a.u.). For “CCGGTTTTATCTAACGTGGCGGATGAGTCAGCGTGAGACCCGGAGTCACCTAGTGCAG”, the binding signal is 14600 fluorescence intensity (a.u.). With “GAAGAATAGGGAGTCACACATTAAATCCGAGAAAGTCAATCGGAGTCACCTAGTGCAG”, the binding signal was 3640 fluorescence intensity (a.u.). As to “TTTGACGGTAACACATATGGCTGTGCGTGGCTCCACCATTCGGAGTCACCTAGTGCAG”, the binding signal is 3620 fluorescence intensity (a.u.). As to “ACAAGAAGACATGAACATCAAGTGAAGCAGGGAGGGGCACCGGAGTCACCTAGTGCAG”, the binding signal is 11900 fluorescence intensity (a.u.). With “CTGATATCTGTCTTCACATAGATTAGGAGCAAAATTTATCCGGAGTCACCTAGTGCAG” the figure was 31000 fluorescence intensity (a.u.); with “CAATATCTATGCTTTTGTCTGACGTCTTGGATATCTCCATCGGAGTCACCTAGTGCAG”, 3390 fluorescence intensity (a.u.); with “GAATAGAACATGTACAGTGACACATCTGCATTGGAAGCGTCGGAGTCACCTAGTGCAG”, 7380 fluorescence intensity (a.u.). With “AGGTGAGCGCCGCTGTGCTCACCTAACCCACACACGTGGCCGGAGTCACCTAGTGCAG” the figure was 7480 fluorescence intensity (a.u.); with “TTCCCCTTCTGTTACGTGACACACCCGGCTGCTACCGCACCGGAGTCACCTAGTGCAG”, 3700 fluorescence intensity (a.u.); with “CACACTACTTTCCACTACTCTATCAAGTGCATCTCCAAATCGGAGTCACCTAGTGCAG”, 7110 fluorescence intensity (a.u.). As for “TTTCGAACTCACTAATCCCAATTCCCACGCAACATTGTCCCGGAGTCACCTAGTGCAG”, the binding signal is 3180 fluorescence intensity (a.u.). In the case of “CTACTAATAAGGCGTGTTATTATTGGTCATCAATGGCGTCCGGAGTCACCTAGTGCAG”, the binding signal was 3300 fluorescence intensity (a.u.). For the sequence “AAAGTAGTTTTACACGTAAATCGGGCGCTGACGTTATCAGCGGAGTCACCTAGTGCAG”, the binding signal was 5310 fluorescence intensity (a.u.). With “TTAAGTCCCTGGATCCAAACACCACGTGAGTCGACAGTTGCGGAGTCACCTAGTGCAG” the figure was 3270 fluorescence intensity (a.u.); with “ACCTGTGAATGTCTCTAGTGTGACGACTCTACTTCAGTTTCGGAGTCACCTAGTGCAG”, 4050 fluorescence intensity (a.u.); with “CCCGTTAGGAGAGTTCATAAACGGCGTCACTGCTGGTTTTCGGAGTCACCTAGTGCAG”, 3640 fluorescence intensity (a.u.). As for “CTCTATCTCTCACTCTGAATTCTGAAAATGATCAGTTCCTCGGAGTCACCTAGTGCAG”, the figure is 16600 fluorescence intensity (a.u.). With “AAATGGGTCATTTTCTTGCCACCTCCATGTTGGTAATGTGCGGAGTCACCTAGTGCAG” the figure was 4180 fluorescence intensity (a.u.). For the sequence “AAGTCTAACTGGGATCCACCTACTTCTCCTCTCACTGCCGCGGAGTCACCTAGTGCAG”, the binding signal is 5930 fluorescence intensity (a.u.). As for “GGGCTCCACGTTAGCTCCGGGCCCACGTGTCATCGGCTATCGGAGTCACCTAGTGCAG”, the figure is 23000 fluorescence intensity (a.u.). As for “TTTGTTGTGCAGACCTGCTTGTGACATTGCAATTTCTGGTCGGAGTCACCTAGTGCAG”, the figure is 4450 fluorescence intensity (a.u.). As for “TTTAGCGTATTTTCTGTGGGTCCCATTTACCACGTCAGCACGGAGTCACCTAGTGCAG”, the figure is 29400 fluorescence intensity (a.u.); as for “GAGTTGGGCTATATTTGTTTTCTATTCGAACAATTTGGTACGGAGTCACCTAGTGCAG”, 3660 fluorescence intensity (a.u.). “ACTGGTCTACACCGCGTCGCAAAATACCGTCAGACGGATGCGGAGTCACCTAGTGCAG”: the binding signal was 3540 fluorescence intensity (a.u.). “TTTCAGTAGCGTCGGCTGCTCTATCTACTTGCATTGCCTGCGGAGTCACCTAGTGCAG”: the binding signal is 41000 fluorescence intensity (a.u.). As for “AAGCATCCATCCAACCATCCACGTGTCCGTCACAGCATCTCGGAGTCACCTAGTGCAG”, the figure is 20200 fluorescence intensity (a.u.); as for “CATGCACGCATGGCGATCCTTGTAGAATTAATCCGAACAGCGGAGTCACCTAGTGCAG”, 3260 fluorescence intensity (a.u.).

For “CCACCACACATATAACCCAGCGACGTGGCCTCCGCTCGCTCGGAGTCACCTAGTGCAG”, the binding signal was 5710 fluorescence intensity (a.u.).

In the case of “GTGGAGGTGATGTGATGTGATTAGTTGACGAGACGGGGAGCGGAGTCACCTAGTGCAG”, the binding signal is 3210 fluorescence intensity (a.u.). As for “CCACAGCTTGTGCATTCTTACAAGCATAACACGTGGACGACGGAGTCACCTAGTGCAG”, the binding signal is 10200 fluorescence intensity (a.u.).

Take “TCGAGATATTTTGGAGTGGTCATCATCACTCCCTCGTCGCCGGAGTCACCTAGTGCAG”: the binding signal is 3380 fluorescence intensity (a.u.).

As to “AGCCTCCCCACCAACCGCCACGTCAGCGTGCTTCACGCGTCGGAGTCACCTAGTGCAG”, the binding signal is 18700 fluorescence intensity (a.u.).
